These are yes or no findings as the source states them, for the method shown. Binding seen in cells or lysates may run through a third protein. Some results given as binding are weak or reduced against the parent protein; the word gives no strength.
target: GST-STAT6 aa 677-847 (human); test: GST pull-down, in vitro translated 35S-labeled NCoA-1 fragments

By UniProt entry, the sequences of proteins in these tests, tags left out. Residues count along the entry.
NCoA-1 N-terminal fragment spanning amino acids 1 to 781 (P70365, residues 1-781): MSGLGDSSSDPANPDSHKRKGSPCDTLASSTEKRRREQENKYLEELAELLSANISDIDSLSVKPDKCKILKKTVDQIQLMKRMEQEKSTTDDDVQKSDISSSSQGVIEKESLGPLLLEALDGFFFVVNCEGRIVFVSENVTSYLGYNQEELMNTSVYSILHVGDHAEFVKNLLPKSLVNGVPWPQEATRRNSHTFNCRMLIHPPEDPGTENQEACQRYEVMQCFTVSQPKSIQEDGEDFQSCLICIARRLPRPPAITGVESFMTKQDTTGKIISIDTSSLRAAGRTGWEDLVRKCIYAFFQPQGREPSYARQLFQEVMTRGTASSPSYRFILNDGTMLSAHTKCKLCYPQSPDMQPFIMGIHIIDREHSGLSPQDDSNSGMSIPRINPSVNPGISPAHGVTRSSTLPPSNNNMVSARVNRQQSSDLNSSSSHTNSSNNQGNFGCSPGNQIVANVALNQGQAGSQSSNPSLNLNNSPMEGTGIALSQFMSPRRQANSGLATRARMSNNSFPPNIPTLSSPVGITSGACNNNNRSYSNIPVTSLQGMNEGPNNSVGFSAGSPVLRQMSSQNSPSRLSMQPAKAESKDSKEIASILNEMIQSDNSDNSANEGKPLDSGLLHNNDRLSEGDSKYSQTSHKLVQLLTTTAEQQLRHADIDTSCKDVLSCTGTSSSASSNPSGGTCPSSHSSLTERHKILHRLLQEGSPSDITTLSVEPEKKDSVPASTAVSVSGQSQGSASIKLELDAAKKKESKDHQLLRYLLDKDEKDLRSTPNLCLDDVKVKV
NCoA-1 fragment (1-571) (P70365, residues 1-571): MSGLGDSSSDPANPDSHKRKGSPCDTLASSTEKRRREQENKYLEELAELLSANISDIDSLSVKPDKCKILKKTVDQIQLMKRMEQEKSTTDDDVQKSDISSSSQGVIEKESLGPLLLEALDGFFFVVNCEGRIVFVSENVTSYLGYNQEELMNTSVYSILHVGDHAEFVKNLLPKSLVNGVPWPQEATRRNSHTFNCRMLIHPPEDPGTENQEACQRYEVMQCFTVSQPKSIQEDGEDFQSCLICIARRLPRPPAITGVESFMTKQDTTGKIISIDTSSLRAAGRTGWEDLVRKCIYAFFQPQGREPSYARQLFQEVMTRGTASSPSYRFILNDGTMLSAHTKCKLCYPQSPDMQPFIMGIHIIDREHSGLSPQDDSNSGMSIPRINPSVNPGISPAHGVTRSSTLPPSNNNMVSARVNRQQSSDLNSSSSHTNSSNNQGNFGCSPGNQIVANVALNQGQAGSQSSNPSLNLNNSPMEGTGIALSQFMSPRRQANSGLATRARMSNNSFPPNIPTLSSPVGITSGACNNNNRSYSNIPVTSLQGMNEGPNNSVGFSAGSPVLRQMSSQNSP

Row | binding | Substance
1 | binds | NCoA-1 fragment (1-571) (from UniProt P70365 1-571)
2 | binds | NCoA-1 N-terminal fragment spanning amino acids 1 to 781 (from UniProt P70365 1-781)
3 | binds | NCoA-1 fragment comprising residues 213 to 462 (from UniProt P70365 213-462)
